In patent US20240018161A1, “MODULATORS OF CYSTIC FIBROSIS TRANSMEMBRANE CONDUCTANCE REGULATOR” (VERTEX PHARMACEUTICALS INCORPORATED, priority 2020, published 2024):
Structures were worked out from names or drawings and are uncertain.

Sequences of proteins named here, by UniProt entry; tags and fusion partners are left off. A line that says so, or that is headed by a name, gives the form on record, which may keep a tag or linker.
UniProt P13569, with tags, fused parts or gaps DEL508-508: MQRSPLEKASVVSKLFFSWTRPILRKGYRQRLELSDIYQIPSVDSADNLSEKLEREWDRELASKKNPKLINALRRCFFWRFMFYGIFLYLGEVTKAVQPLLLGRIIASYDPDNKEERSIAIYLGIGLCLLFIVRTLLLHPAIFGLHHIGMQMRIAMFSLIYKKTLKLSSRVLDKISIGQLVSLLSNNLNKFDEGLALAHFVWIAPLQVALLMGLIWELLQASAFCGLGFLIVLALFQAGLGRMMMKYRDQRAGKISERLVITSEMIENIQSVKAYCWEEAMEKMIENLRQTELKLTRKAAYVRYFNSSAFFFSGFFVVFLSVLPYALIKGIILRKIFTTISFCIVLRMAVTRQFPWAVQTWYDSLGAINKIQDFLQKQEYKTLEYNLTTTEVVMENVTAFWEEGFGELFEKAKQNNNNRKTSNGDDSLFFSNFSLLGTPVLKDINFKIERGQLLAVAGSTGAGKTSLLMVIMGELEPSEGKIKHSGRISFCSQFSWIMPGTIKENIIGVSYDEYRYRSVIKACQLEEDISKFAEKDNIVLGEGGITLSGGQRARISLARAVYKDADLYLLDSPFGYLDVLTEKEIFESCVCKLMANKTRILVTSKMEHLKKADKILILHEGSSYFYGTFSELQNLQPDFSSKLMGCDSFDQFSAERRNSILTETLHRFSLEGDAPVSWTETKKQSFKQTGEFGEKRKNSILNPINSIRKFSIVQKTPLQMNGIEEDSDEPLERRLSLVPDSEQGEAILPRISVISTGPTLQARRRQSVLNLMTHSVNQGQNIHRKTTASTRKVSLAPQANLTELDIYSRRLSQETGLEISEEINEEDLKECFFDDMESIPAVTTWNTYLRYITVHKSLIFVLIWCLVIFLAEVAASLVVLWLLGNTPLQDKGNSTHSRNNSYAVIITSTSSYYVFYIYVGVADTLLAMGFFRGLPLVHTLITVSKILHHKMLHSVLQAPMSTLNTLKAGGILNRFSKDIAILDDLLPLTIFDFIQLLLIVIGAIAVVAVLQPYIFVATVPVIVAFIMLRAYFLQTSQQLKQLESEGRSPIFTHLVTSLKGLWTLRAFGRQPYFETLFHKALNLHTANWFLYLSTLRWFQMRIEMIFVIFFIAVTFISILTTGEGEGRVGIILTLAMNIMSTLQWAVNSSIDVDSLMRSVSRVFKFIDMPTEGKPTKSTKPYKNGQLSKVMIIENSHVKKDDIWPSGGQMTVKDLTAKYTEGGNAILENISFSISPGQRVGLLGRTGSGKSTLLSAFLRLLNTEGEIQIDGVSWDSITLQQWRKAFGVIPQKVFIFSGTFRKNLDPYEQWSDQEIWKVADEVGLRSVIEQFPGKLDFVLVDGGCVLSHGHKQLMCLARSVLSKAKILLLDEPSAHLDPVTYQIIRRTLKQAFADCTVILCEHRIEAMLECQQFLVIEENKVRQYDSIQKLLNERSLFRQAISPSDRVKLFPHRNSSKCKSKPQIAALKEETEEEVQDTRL

Target: CFTR-mediated chloride transport in human intestinal epithelial enteroid cells (Homo sapiens, UniProt P13569)
Test: Membrane potential dye, Enteroid Assay A
Details: for Ent. A Max Activity (%): percentage of chloride transport of triple combination control (3 μM N-[(6-amino-2-pyridyl)sulfonyl]-6-(3-fluoro-5-isobutoxy-phenyl)-2-[(4S)-2,2,4-trimethylpyrrolidin-1-yl]pyridine-3-carboxamide based); for EC50: read-out: Ent. A EC50, enteroid cells incubated with test compound 18-24 hours, acute 10 μM forskolin and 300 nM N-[2,4-bis(1,1-dimethylethyl)-5-hydroxyphenyl]-1,4-dihydro-4-oxoquinoline-3-carboxamide

| SMILES | Ent. A Max Activity (%) | EC50 [µM] |
| --- | --- | --- |
| Cc1ccccc1-c1cc2nc(n1)NS(=O)(=O)c1cccc(c1)C(=O)N1Cc3ccccc3C(C1)O2 (centres unmarked) | ++ (++ is 30-60%) | < 1 |
| Cc1cccc(C)c1-c1cc2nc(n1)NS(=O)(=O)c1cccc(c1)C(=O)N1CCN(CC3CC4C=CC3C4)C[C@@H]1CO2 (some centres unmarked) | ++ (++ is 30-60%) | < 1 |
| Cc1cccc(C)c1-c1cc2nc(n1)NS(=O)(=O)c1cccc(c1)C(=O)N1CC(CC1(C)C)O2 (centres unmarked) | ++ (++ is 30-60%) | 3 to 30 |
| Cc1cnc2cc1C(=O)N1Cc3ccccc3C(C1)Oc1cc(-c3c(C)cccc3C)nc(n1)NS2(=O)=O (centres unmarked) | + (+ is <300%) | 1 to 3 |
